In paper PMC4263398:
No constants are given. Whether binding was seen depends on the method and setting. In cells and extracts the contact can be indirect. A yes stands for co-enrichment or nearness to the bait. Other partners may have been found. For some of these results: No binding means not detected with the bait. Where a sequence is shown, tags or fusion partners need not be part of it.

Protein sequences, listed by entry. Tags and fused reporters are not part of them.
UniProt O35730: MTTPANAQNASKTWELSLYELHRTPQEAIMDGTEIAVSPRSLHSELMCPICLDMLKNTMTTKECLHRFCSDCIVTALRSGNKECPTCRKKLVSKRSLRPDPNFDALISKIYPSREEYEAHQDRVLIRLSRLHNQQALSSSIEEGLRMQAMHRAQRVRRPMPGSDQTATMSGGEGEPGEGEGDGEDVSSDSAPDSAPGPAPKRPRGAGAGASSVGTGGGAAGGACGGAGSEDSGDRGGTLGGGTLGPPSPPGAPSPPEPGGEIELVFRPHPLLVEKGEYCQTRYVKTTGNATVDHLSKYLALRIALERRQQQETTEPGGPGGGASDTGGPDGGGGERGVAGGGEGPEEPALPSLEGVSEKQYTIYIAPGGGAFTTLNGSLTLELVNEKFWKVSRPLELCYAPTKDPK
UniProt Q8CHK4: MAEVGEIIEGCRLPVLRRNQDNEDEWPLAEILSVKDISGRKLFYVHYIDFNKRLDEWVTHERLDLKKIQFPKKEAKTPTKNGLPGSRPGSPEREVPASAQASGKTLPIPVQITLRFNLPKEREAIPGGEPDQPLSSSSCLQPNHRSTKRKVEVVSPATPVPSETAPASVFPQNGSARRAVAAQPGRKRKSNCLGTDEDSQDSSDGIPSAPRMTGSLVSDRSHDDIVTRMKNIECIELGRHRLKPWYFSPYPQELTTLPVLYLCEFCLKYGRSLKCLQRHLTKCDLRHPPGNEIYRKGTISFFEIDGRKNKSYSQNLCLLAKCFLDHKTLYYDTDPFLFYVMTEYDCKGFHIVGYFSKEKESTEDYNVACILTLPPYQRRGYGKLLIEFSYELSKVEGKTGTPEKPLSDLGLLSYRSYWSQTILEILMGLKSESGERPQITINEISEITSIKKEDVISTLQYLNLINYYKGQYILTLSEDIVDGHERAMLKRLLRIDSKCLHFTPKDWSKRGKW

T1: FLAG epitope-tagged Cbx8 (mouse) (UniProt Q9QXV1)
T1 sequence: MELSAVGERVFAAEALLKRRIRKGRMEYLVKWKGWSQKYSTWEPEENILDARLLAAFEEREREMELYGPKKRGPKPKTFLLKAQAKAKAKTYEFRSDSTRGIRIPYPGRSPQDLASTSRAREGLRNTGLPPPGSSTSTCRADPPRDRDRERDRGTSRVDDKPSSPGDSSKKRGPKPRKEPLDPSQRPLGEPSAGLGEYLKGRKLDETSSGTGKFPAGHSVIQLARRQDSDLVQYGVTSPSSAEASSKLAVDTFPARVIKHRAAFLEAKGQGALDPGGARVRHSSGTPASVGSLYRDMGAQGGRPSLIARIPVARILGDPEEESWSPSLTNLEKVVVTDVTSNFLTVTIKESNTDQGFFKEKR

T2: FLAG epitope-tagged Cbx8 (mouse), Q9QXV1
T2 chain: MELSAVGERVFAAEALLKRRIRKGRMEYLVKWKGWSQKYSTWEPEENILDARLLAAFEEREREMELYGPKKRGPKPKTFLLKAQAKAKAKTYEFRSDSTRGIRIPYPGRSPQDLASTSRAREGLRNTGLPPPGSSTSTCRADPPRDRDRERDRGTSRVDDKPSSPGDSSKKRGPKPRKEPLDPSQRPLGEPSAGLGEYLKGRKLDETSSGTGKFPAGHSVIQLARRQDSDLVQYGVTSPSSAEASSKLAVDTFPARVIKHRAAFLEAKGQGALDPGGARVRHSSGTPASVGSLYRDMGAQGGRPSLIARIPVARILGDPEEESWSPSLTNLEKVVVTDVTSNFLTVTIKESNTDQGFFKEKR


How the values were obtained:
[1] = molecular target: T1, FLAG epitope-tagged Cbx8 (mouse); assay: affinity purification with mass spectrometry; anti-Flag M2 beads, 2 h; soluble nuclear extract (high salt extraction, diluted to isotonic concentration) of ES cells expressing Flag-tagged Cbx8, treated with RA for 3 days; parental (mock) cells as control; LC-MS/MS; only proteins enriched more than 10 fold with at least 5% coverage were considered
[2] = molecular target: T2, FLAG epitope-tagged Cbx8 (mouse), Q9QXV1; assay: as above; conditions: remark: other sources report otherwise

Molecule | binding [1] | binding [2]
Ring1a (from UniProt O35730 1-406) | binds | 
Tip60 (from UniProt Q8CHK4 1-513) | no binding | 
Phc2, Q9QWH1 1-850 (protein) MENELPVPHTSNRASVTTNTSGTNSSSGCISSSGGGGGSGGRPTAPQISVYSGIPDRQTVQVIQQALHRQPSTAAQYLQQMYAAQQQHLMLQTAALQQQHLSSAQLQSLAAVQQASLVANRQGSTPGSSVSSQAPAQSSSLNLAASPAAAQLINRAQSVNSAAASGLAQQAVLLGNTSSPALTASQAQMYLRAQMLIFTPTATVATVQPELCTGSPARPPTPAQVQNLTLRTQQTPAAAASGPPPTQPVLPSLALKPTPSSSQPLPAPPQGRTMAQGSPAGAKPSGTDNAPETLKAGDGNCNMEGRPGPGRAVPAVATHPLIAPAYAHLQSHQLLPQPPAKHPQPQFVAQQQPQPPRPAPQVQSQPQLASVSPSLALQSSPEDHALPLGSVTQALPLQCSTTHVHKPGNSQQCHLPTLDTGSQNGHPEGGSHPPQRRFQHTSAVILQVQPASPVTPQQCAPDDWKEVVPAEKSVPVARPGPSPHQQAIIPAIPGGLPGPKSPNIQQCPAHETGQGIVHALTDLSSPGMTSGNGNSASSIAGTAPQNGENKPPQAIVKPQILTHVIEGFVIQEGAEPFPVGRSSLLVGNLKKKYAQGFLPEKPPQQDHTTTTDSEMEEPYLQESKEEGTPLKLKCELCGRVDFAYKFKRSKRFCSMACAKRYNVGCTKRVGLFHSDRSKLQKAGTTTHNRRRASKASLPTLTKDTKKQPSGTVPLSVTAALQLAHSQEDSSRCSDNSSYEEPLSPISASSSTSRRRQGQRDLDLPDMHMRDLVGVGHHFLPSEPTKWNVEDVYEFIRSLPGCQEIAEEFRAQEIDGQALLLLKEDHLMSAMNIKLGPALKIYARISMLKDS |  | binds
Mel18 (protein, UniProt P23798 1-342) MHRTTRIKITELNPHLMCALCGGYFIDATTIVECLHSFCKTCIVRYLETNKYCPMCDVQVHKTRPLLSIRSDKTLQDIVYKLVPGLFKDEMKRRRDFYAAYPLTEVPNGSNEDRGEVLEQEKGALGDDEIVSLSIEFYEGVRDREEKKNLTENGDGDKEKTGVRFLRCPAAMTVMHLAKFLRNKMDVPSKYKVEILYEDEPLKEYYTLMDIAYIYPWRRNGPLPLKYRVQPACKRLTLPTVPTPSEGTNTSGASECESVSDKAPSPATLPATSSSLPSPATPSHGSPSSHGPPATHPTSPTPPSTAAGTTTATNGGTSNCLQTPSSTSRGRKMTVNGAPCPP | binds | 
